No constants are given. Whether binding was seen depends on the method and setting. For some assays here: Binding seen in cells or lysates may run through a third protein. Some entries that bind do so weakly or less than the wild type. Where a sequence is shown, tags or fusion partners need not be part of it.

Chains of the proteins cited; added tags and fusions are not shown.
UniProt P54132: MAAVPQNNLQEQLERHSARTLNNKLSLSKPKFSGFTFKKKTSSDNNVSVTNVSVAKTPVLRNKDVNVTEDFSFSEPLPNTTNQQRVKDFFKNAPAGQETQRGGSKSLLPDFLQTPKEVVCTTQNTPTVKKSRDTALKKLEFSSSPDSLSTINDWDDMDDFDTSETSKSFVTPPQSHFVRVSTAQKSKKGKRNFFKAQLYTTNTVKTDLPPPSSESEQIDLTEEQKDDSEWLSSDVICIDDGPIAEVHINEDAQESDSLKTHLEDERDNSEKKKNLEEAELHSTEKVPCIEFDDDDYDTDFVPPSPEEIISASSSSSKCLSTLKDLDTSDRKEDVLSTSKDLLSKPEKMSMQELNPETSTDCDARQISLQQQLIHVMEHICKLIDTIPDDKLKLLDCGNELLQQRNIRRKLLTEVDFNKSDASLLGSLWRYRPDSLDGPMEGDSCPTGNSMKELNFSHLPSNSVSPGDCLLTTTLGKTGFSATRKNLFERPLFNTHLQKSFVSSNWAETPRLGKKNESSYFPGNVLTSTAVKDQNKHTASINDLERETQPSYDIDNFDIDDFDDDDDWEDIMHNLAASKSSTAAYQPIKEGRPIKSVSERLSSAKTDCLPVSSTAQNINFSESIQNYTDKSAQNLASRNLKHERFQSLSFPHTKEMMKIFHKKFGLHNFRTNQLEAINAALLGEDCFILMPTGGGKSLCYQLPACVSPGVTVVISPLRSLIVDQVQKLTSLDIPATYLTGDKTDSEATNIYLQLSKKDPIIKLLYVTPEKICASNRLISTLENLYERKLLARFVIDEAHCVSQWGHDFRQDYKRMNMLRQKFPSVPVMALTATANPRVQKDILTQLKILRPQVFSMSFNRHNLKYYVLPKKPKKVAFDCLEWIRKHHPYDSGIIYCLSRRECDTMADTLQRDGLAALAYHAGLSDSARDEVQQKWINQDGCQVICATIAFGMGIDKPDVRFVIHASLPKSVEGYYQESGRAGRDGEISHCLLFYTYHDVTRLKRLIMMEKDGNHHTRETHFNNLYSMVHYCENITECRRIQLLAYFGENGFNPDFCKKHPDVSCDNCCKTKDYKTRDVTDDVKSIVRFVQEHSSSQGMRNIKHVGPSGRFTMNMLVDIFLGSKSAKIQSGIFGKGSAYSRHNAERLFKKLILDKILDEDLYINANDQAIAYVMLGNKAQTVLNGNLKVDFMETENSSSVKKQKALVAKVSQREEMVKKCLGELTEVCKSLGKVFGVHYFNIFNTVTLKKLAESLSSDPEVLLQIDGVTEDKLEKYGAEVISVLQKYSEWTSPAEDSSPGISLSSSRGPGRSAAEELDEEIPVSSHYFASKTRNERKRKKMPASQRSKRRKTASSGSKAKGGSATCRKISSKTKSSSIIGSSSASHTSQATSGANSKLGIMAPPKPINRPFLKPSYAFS

In test [1] the target is T1, PICH-mAID-mClover3 (endogenously tagged PLK1-interacting checkpoint helicase) (human (endogenous in RPE1)) (UniProt Q2NKX8).
T1 sequence: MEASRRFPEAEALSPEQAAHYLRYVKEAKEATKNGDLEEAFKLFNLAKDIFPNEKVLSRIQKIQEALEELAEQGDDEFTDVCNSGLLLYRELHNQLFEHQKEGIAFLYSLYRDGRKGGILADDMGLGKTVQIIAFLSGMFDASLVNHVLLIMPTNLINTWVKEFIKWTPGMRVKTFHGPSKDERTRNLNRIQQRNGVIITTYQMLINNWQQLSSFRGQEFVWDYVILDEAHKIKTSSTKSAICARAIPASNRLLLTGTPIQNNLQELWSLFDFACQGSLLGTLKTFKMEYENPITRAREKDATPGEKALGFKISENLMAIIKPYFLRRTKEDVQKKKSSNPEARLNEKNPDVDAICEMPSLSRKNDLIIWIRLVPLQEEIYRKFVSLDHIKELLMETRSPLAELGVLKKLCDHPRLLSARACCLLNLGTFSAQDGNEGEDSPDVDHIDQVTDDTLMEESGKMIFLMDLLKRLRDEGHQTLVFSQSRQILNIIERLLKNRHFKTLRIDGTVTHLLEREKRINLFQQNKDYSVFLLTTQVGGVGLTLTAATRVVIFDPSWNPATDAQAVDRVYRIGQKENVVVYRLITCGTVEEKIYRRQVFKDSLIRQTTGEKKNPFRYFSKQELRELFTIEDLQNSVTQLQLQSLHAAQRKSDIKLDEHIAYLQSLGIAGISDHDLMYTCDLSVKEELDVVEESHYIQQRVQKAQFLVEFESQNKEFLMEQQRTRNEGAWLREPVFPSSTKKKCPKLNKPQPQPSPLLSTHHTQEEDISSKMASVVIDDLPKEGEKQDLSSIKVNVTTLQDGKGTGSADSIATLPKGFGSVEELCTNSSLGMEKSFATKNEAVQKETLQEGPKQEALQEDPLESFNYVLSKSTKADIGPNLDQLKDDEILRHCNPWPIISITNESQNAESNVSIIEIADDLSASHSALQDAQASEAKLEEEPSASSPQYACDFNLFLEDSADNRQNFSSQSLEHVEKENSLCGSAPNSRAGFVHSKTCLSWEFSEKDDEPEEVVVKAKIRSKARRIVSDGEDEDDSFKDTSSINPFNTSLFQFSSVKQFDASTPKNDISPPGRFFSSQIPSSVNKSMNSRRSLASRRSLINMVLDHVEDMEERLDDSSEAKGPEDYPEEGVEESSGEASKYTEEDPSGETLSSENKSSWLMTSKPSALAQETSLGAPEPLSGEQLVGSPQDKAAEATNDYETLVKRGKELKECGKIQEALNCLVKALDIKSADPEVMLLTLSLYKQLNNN
As to the kind of experiment: co-IP; nocodazole/MG132-arrested RPE1 PICH-mAID-mClover3 cells with or without PLK1i (BI2536, 100 nM, last 1 hr); lysis buffer B with benzonase; anti-BLM with Protein A/G beads or GFP-Trap for PICH; washes 150 mM NaCl.

Another test deals with T2, CENPB-mCherry-RMI1 (UniProt Q9H9A7).
T2 sequence: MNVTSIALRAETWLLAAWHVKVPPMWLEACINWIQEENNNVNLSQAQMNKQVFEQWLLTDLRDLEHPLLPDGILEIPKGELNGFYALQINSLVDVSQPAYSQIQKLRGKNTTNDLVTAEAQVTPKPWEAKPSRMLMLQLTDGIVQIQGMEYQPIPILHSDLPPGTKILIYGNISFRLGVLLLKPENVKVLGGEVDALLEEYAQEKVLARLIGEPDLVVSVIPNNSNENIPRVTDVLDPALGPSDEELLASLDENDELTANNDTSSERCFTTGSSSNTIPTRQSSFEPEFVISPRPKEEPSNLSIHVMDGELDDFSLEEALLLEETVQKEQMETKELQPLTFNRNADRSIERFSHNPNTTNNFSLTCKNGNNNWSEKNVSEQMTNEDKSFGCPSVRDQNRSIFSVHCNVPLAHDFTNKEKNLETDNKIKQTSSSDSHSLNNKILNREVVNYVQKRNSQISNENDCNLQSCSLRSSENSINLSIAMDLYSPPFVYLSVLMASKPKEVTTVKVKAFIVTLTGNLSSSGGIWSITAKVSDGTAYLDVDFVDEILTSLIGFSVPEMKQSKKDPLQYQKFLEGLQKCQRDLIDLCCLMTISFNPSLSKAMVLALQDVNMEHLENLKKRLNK
As to the kind of experiment: tethering to centromeres by CENPB fusion and recruitment of the partner seen by microscopy; time-lapse live-cell imaging of EGFP-TOP3A HeLa cells expressing CENPB-mCherry fusions, late G2 to the next G1.

As for “Bloom syndrome DNA helicase BLM, endogenous (from UniProt P54132 1-1417)”, the binding result in test [1] was “binds”.

B1: EGFP-TOP3A (protein, UniProt Q13472 1-1001)
chain: MIFPVARYALRWLRRPEDRAFSRAAMEMALRGVRKVLCVAEKNDAAKGIADLLSNGRMRRREGLSKFNKIYEFDYHLYGQNVTMVMTSVSGHLLAHDFQMQFRKWQSCNPLVLFEAEIEKYCPENFVDIKKTLERETRQCQALVIWTDCDREGENIGFEIIHVCKAVKPNLQVLRARFSEITPHAVRTACENLTEPDQRVSDAVDVRQELDLRIGAAFTRFQTLRLQRIFPEVLAEQLISYGSCQFPTLGFVVERFKAIQAFVPEIFHRIKVTHDHKDGIVEFNWKRHRLFNHTACLVLYQLCVEDPMATVVEVRSKPKSKWRPQALDTVELEKLASRKLRINAKETMRIAEKLYTQGYISYPRTETNIFPRDLNLTVLVEQQTPDPRWGAFAQSILERGGPTPRNGNKSDQAHPPIHPTKYTNNLQGDEQRLYEFIVRHFLACCSQDAQGQETTVEIDIAQERFVAHGLMILARNYLDVYPYDHWSDKILPVYEQGSHFQPSTVEMVDGETSPPKLLTEADLIALMEKHGIGTDATHAEHIETIKARMYVGLTPDKRFLPGHLGMGLVEGYDSMGYEMSKPDLRAELEADLKLICDGKKDKFVVLRQQVQKYKQVFIEAVAKAKKLDEALAQYFGNGTELAQQEDIYPAMPEPIRKCPQCNKDMVLKTKKNGGFYLSCMGFPECRSAVWLPDSVLEASRDSSVCPVCQPHPVYRLKLKFKRGSLPPTMPLEFVCCIGGCDDTLREILDLRFSGGPPRASQPSGRLQANQSLNRMDNSQHPQPADSRQTGSSKALAQTLPPPTAAGESNSVTCNCGQEAVLLTVRKEGPNRGRQFFKCNGGSCNFFLWADSPNPGAGGPPALAYRPLGASLGCPPGPGIHLGGFGNPGDGSGSGTSCLCSQPSVTRTVQKDGPNKGRQFHTCAKPREQQCGFFQWVDENTAPGTSGAPSWTGDRGRTLESEARSKRPRASSSDMGSTAKKPRKCSLCHQPGHTRPFCPQNR
For B1, the binding result in the test with CENPB-mCherry-RMI1 is on record as “binds”.

For the origin of these results see PMC12373852.
